Assay results from PubChem BioAssay AID485298 (National Center for Advancing Translational Sciences (NCATS), 2010).
The campaign covered roughly 320,000 compounds. About 740 (0.23%) were called active. This list was built around the results that the source calls inconclusive (neither active nor inactive); the mix of calls is not that of the screen. The call rests on the fitted dose curve; in most records, active means well fitted activation curve with a large enough effect; inconclusive means small, poorly fitted or top-dose-only effect; inactive means no such curve, though single readings can be large or run the other way. A potency beside an inconclusive call is a rough fit, not a confirmed value.

Test: qHTS Assay for Small Molecule Inhibitors of Mitochondrial Division or Activators of Mitochondrial Fusion; further: nearly all actives have a fitted effect of over 45% in size;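 on growth rescue (activation): temperature-sensitive fusion mutants such as fzo1-1 at 37 °C on non-fermentable ethanol glycerol medium; % of control where 0% means no effect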
Details: S. cerevisiae fusion-defective mutant growth rescue, CellTiterGlo 48 h; growth rescue (activation): at 46.1 µM (top of the series) unless noted
Procedure, shortened: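 Compounds are tested for their ability to restore growth of mitochondrial fusion-defective yeast strains at non-permissive 37C in YPEG medium over 48 hours. Viability is quantified by luciferase luminescence.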
Potency means the concentration at half of the fitted maximal effect.

| Structure (SMILES) | growth rescue (activation) | Potency |
| --- | --- | --- |
| Cn1ccc2cc(-c3ccc4ncnc(NCc5cccs5)c4c3)ccc21 | inactive: -12.4% | – |
| CCC(=O)N(C)CCc1cc2c(c(OC)c1/C=N/NC(=O)c1ccc(Br)cc1)OCO2 | inactive: -1.39% | – |
| CCOC(=O)c1c(C)[nH]c(C(=O)CN(C)CC(=O)Nc2ccccc2C(F)(F)F)c1C | – | inconclusive: 15.8 µM [activator, single point] |
| COc1cccc(/C=C(/C(=O)OCC(=O)NC2CCCC(C)C2C)c2ccccc2)c1 (centres undefined) | – | inconclusive: 35.5 µM [activator, single point] |
| O=C(NC1CCCCCCC1)c1cc(F)c(F)cc1Cl | inactive: 8.69% | – |
| CCOC(=O)c1sc(NC(=O)Nc2ccc(Cl)cc2)nc1C | – | inconclusive: 35.5 µM [activator, single point] |
| Cc1ccnc(NS(=O)(=O)c2ccc(N3C(=O)c4ccccc4C3=O)cc2)n1 | inactive: -0.212% | – |
| COc1ccc(CNc2oc(-c3ccccc3)nc2C#N)cc1 | – | inconclusive: 22.4 µM [activator, single point] |
| COc1ccc(N)c2c1C(=O)c1ccccc1C2=O | inactive: -3.1% | – |
| O=C(CNC(=O)c1ccc(F)cc1)N/N=C/c1cc(Br)ccc1OCc1ccccc1 | – | inconclusive: 15.8 µM [activator, single point] |
| Cc1ccc(S(=O)(=O)N(CC(=O)NCCSc2ccccn2)c2ccc(C)c(C)c2)cc1 | – | inconclusive: 31.6 µM [activator, single point] |
| CC1CCN(C(=O)c2cccc(S(=O)(=O)N3CCN(c4ccccc4)CC3)c2)CC1 | – | active: 17.8 µM |
| COc1cc(NS(=O)(=O)c2cc(C)ccc2OC)c(OC)cc1Cl | inactive: 2.8% | – |
| NC(=O)CSc1ncc(-c2ccc([N+](=O)[O-])cc2)[nH]1 | – | inconclusive: 15.8 µM [activator, partial curve] |
| C(=C\c1ccccc1)/CNn1cnnc1 | inactive: 1.73% | – |
| COc1ccc(C(C)=O)cc1CSc1nnc(Nc2ccccc2C)s1 | – | inconclusive: 35.5 µM [activator, single point] |
| CCc1nc(N2CCC(C)CC2)c2oc3ccccc3c2n1 | – | inconclusive: 14.1 µM [activator, single point] |
| CC(C)c1ccc(OCC(=O)N(Cc2ccccc2)c2ccccn2)cc1 | – | inconclusive: 14.1 µM [activator, partial curve] |
| Oc1ccc(-n2nnnc2SCc2c(F)cccc2Cl)cc1 | – | inconclusive: 11.2 µM [activator, partial curve] |
| Cc1ccc(C)c(S(=O)(=O)N2CCN(C(=O)C3CCN(c4ncnc5sc(C)c(C)c45)CC3)CC2)c1 | – | inconclusive: 35.5 µM [activator, single point] |
| O=C(NCCc1ccccn1)c1cncc(Br)c1 | – | inconclusive: 3.98 µM [activator, single point] |
| CC(C)CC(COCc1ccc(Cl)cc1)N1CCN(C(=O)c2cccc(C(F)(F)F)c2)CCC1=O (centres undefined) | – | inconclusive: 11.2 µM [activator, partial curve] |

Some of the entries so far, bar-delimited.
Structure (SMILES) | growth rescue (activation) | Potency
Cc1ccc(S(=O)(=O)N(CC(=O)NCCSc2ccccn2)c2ccc(C)c(C)c2)cc1 | – | inconclusive: 31.6 µM [activator, single point]
CC1CCN(C(=O)c2cccc(S(=O)(=O)N3CCN(c4ccccc4)CC3)c2)CC1 | – | active: 17.8 µM

(listing goes on)

| Structure (SMILES) | growth rescue (activation) | Potency |
| --- | --- | --- |
| Cc1ccc2nc(-c3ccccc3)cc(C(=O)N3CCN(c4ccccc4O)CC3)c2c1 | – | inconclusive: 15.8 µM [activator, single point] |
| CN(Cc1nc(-c2ccncc2)no1)S(=O)(=O)c1ccccc1 | – | inconclusive: 2.82 µM [activator, partial curve] |
| O=C(Nc1cc(-c2ccccc2)nn1-c1ccccc1F)c1ccc([N+](=O)[O-])cc1 | – | inconclusive: 11.2 µM [activator, partial curve] |
| CC(C)c1ccc(Nc2ccc(C(=O)O)cc2[N+](=O)[O-])cc1 | – | inconclusive: 10 µM [activator, partial curve, poor fit] |
| Cc1cccc(NC(=S)NC(=O)c2ccc(-c3ccccc3)cc2)n1 | – | inconclusive: 5.01 µM [activator, full curve, poor fit] |
| Cc1cccc(NC(=O)CSCC(=O)N(C)Cc2ccc(Cl)c(Cl)c2)c1 | – | inconclusive: 20 µM [activator, single point] |
| CCN1C(=O)[C@H]2[C@@H](c3ccc(-c4cccc(Cl)c4)cc3)N3CCCC[C@@]3(C(=O)OC)[C@H]2C1=O | – | inconclusive: 20 µM [activator, partial curve] |
| O=C(Cc1ccc(Cl)cc1)Nc1ccccc1Sc1ccccc1 | – | inconclusive: 35.5 µM [activator, single point] |
| COc1ccc(S(=O)(=O)N2CCCC(C(=O)NCc3ccco3)C2)cc1OC (centres undefined) | – | inconclusive: 17.8 µM [activator, partial curve] |
| CC/C(=N\NC(=S)Nc1ccc(OC)cc1)c1ccc(OC(F)F)cc1 | – | inconclusive: 20 µM [activator, single point] |
| CSCCCNC(=S)N1CCc2ccccc2C1 | inactive: 1.25% | – |
| Cc1cc(C(=O)NNC(=S)NCc2ccccc2)no1 | inactive: -7% | – |
| CC(=O)c1cc(C(=O)c2ccccc2)sc1Nc1ccccc1 | – | inconclusive: 11.2 µM [activator, partial curve] |
| CCC(=O)Nc1cccc(C(=O)/C=C/c2ccc(F)cc2)c1 | – | inconclusive: 35.5 µM [activator, single point] |
| Cc1c(C(=O)Nc2ccc(-c3nnc4n3CCCCC4)cc2)oc2c1ccc1ccccc12 | – | inconclusive: 31.6 µM [activator, single point] |
| O=C(Oc1ccccc1C(=O)Nc1ccccc1)c1ccccc1Br | – | active: 15.8 µM |
| Ic1ccc(N2CCN(Cc3c[nH]c4ncccc34)CC2)cc1 | – | inconclusive: 2.91 µM [activator, full curve] |
| CS(=O)(=O)N(CC(=O)Nc1ccccc1Sc1ccccc1)c1cccc(Br)c1 | – | inconclusive: 35.5 µM [activator, single point] |
| Cn1c(N)c(C(=O)COC(=O)c2cccnc2Cl)c(=O)n(C)c1=O | inactive: -2.7% | – |
| CC12CCC(C(=O)N(CSC(=S)N/N=C\c3ccccc3O)C1=O)C2(C)C (centres undefined) | inactive: -12.5% | – |
| COc1ccc(NC(=O)c2cc(-c3cc(OC)c(OC)c(OC)c3)nc3ccccc23)c(OC)c1 | – | inconclusive: 11.2 µM [activator, partial curve] |
| O=C(Nc1nc2ccccc2s1)NC1CCCCC1 | inactive: 13.6% | – |
